No constants are given. Whether binding was seen depends on the method and setting. In cells and extracts the contact can be indirect. Some results given as binding are weak or reduced against the parent protein; the word gives no strength. Where a sequence is shown, tags or fusion partners need not be part of it.
T1: PSKR1-nYFP (full-length phytosulfokine receptor 1 fused to nYFP) (Arabidopsis thaliana) (UniProt Q9ZVR7)
T1 sequence: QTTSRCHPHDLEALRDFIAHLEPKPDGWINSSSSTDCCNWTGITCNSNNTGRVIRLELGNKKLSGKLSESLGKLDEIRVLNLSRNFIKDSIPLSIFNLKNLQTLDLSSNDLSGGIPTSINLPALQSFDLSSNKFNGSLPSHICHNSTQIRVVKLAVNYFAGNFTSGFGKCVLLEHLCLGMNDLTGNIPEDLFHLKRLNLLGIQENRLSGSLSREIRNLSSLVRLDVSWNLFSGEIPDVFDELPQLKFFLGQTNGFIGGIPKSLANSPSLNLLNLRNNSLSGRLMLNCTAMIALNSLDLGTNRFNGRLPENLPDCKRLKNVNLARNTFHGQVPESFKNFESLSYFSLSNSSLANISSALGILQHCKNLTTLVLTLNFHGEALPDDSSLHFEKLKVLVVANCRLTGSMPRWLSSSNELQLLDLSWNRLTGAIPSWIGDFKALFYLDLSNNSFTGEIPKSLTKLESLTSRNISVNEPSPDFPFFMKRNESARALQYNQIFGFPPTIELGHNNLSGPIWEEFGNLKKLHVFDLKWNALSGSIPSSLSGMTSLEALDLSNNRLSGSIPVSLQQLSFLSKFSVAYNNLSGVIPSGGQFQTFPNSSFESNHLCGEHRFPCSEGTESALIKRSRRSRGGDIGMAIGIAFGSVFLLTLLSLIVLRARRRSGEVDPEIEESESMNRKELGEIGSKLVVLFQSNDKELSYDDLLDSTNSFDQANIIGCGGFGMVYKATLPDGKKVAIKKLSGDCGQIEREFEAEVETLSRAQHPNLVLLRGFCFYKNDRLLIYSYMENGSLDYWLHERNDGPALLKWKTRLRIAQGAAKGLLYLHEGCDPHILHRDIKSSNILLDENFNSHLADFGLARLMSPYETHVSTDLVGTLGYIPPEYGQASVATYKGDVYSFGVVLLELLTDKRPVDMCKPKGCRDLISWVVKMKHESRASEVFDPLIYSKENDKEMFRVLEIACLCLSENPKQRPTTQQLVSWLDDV

T2: PSKR1-nLUC (35S:PSKR1-nLUC) (Arabidopsis thaliana) (UniProt Q9ZVR7)
T2 sequence: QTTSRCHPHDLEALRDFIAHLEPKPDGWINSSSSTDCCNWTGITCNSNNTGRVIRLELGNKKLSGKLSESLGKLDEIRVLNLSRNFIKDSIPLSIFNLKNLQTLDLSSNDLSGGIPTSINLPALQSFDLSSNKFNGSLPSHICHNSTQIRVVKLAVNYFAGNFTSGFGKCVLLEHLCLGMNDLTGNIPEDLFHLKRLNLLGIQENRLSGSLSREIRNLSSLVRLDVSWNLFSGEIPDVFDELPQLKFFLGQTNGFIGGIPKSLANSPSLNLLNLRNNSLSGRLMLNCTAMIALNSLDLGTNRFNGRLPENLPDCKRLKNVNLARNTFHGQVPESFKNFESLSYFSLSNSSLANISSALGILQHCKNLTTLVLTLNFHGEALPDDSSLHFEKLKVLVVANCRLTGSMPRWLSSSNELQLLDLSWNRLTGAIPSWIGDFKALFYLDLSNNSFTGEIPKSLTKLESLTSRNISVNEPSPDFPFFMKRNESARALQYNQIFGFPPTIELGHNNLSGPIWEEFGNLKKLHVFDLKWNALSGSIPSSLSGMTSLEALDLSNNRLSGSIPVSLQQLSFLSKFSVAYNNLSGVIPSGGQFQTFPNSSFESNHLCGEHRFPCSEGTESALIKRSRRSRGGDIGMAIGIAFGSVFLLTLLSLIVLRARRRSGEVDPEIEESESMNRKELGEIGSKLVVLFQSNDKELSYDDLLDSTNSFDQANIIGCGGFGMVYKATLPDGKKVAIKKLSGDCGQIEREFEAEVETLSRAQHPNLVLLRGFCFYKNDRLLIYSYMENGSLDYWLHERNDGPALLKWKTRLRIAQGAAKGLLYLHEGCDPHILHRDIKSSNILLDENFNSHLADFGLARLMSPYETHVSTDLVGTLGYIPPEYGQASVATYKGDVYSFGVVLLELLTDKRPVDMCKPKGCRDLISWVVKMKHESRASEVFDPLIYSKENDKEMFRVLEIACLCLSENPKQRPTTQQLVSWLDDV


How the values were obtained:
[1] = molecular target: T1, PSKR1-nYFP (full-length phytosulfokine receptor 1 fused to nYFP) (Arabidopsis thaliana); experiment: split reporter; BiFC: PSKR1-nYFP and BAK1-cYFP co-transferred into Arabidopsis mesophyll protoplasts, 10-12 h in W5 solution; control or 2 µM WT PSK, PSK Q5K or PSK Q5A for 10 min before confocal detection of YFP; empty nYFP or cYFP plasmids as negative controls
[2] = molecular target: T2, PSKR1-nLUC (35S:PSKR1-nLUC) (Arabidopsis thaliana); experiment: split reporter; split luciferase complementation: 35S:cLUC-BAK1 and 35S:PSKR1-nLUC co-infiltrated (Agrobacterium GV3101) into N. benthamiana leaves; after 48 h control or 2 µM WT PSK, PSK Q5K or PSK Q5A for 2 h; luciferase imaging with a CCD camera

binding [1]	binding [2]	Binder
binds	–	BAK1-cYFP (full-length Brassinosteroid Insensitive 1 (BRI1)-Associated Kinase I fused to cYFP) (receptor, UniProt Q94F62 26-615) NAEGDALSALKNSLADPNKVLQSWDATLVTPCTWFHVTCNSDNSVTRVDLGNANLSGQLVMQLGQLPNLQYLELYSNNITGTIPEQLGNLTELVSLDLYLNNLSGPIPSTLGRLKKLRFLRLNNNSLSGEIPRSLTAVLTLQVLDLSNNPLTGDIPVNGSFSLFTPISFANTKLTPLPASPPPPISPTPPSPAGSNRITGAIAGGVAAGAALLFAVPAIALAWWRRKKPQDHFFDVPAEEDPEVHLGQLKRFSLRELQVASDNFSNKNILGRGGFGKVYKGRLADGTLVAVKRLKEERTQGGELQFQTEVEMISMAVHRNLLRLRGFCMTPTERLLVYPYMANGSVASCLRERPESQPPLDWPKRQRIALGSARGLAYLHDHCDPKIIHRDVKAANILLDEEFEAVVGDFGLAKLMDYKDTHVTTAVRGTIGHIAPEYLSTGKSSEKTDVFGYGVMLLELITGQRAFDLARLANDDDVMLLDWVKGLLKEKKLEALVDVDLQGNYKDEEVEQLIQVALLCTQSSPMERPKMSEVVRMLEGDGLAERWEEWQKEEMFRQDFNYPTHHPAVSGWIIGDSTSQIENEYPSGPR
–	binds	cLUC-BAK1 (35S:cLUC-BAK1) (receptor, UniProt Q94F62 26-615) NAEGDALSALKNSLADPNKVLQSWDATLVTPCTWFHVTCNSDNSVTRVDLGNANLSGQLVMQLGQLPNLQYLELYSNNITGTIPEQLGNLTELVSLDLYLNNLSGPIPSTLGRLKKLRFLRLNNNSLSGEIPRSLTAVLTLQVLDLSNNPLTGDIPVNGSFSLFTPISFANTKLTPLPASPPPPISPTPPSPAGSNRITGAIAGGVAAGAALLFAVPAIALAWWRRKKPQDHFFDVPAEEDPEVHLGQLKRFSLRELQVASDNFSNKNILGRGGFGKVYKGRLADGTLVAVKRLKEERTQGGELQFQTEVEMISMAVHRNLLRLRGFCMTPTERLLVYPYMANGSVASCLRERPESQPPLDWPKRQRIALGSARGLAYLHDHCDPKIIHRDVKAANILLDEEFEAVVGDFGLAKLMDYKDTHVTTAVRGTIGHIAPEYLSTGKSSEKTDVFGYGVMLLELITGQRAFDLARLANDDDVMLLDWVKGLLKEKKLEALVDVDLQGNYKDEEVEQLIQVALLCTQSSPMERPKMSEVVRMLEGDGLAERWEEWQKEEMFRQDFNYPTHHPAVSGWIIGDSTSQIENEYPSGPR

From publication PMC11994915
